Source: PMC12554172, “Systematic analysis of the RGS2 degron reveals characteristics of substrate recognition by the F-box protein FBXO44” (The Journal of Biological Chemistry, 2025)
No constants are given. Whether binding was seen depends on the method and setting. Some binding calls cover weakened binding; strength is not graded here. Where a sequence is shown, tags or fusion partners need not be part of it.

Protein sequences, listed by entry. Tags and fused reporters are not part of them. Lines headed by an entry give the natural chain unless they say otherwise; changes in a name come on top.
UniProt P41220: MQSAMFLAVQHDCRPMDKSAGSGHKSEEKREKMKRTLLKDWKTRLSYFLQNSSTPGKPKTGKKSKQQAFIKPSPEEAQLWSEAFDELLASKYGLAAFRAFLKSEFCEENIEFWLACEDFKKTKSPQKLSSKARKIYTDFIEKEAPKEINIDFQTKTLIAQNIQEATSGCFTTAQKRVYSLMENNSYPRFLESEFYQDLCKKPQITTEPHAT

Assays:
Assay in all cases: peptide or protein array; custom PEPperPRINT peptide microarray (each position of RGS2^5–16 substituted by every other amino acid; C-terminal truncations); 2 μg/ml purified FLAG-FBXO44^FBA in staining buffer (PBS, 0.005% Tween, pH 7.4, 10% Rockland blocking buffer) overnight at 4 °C; anti-FLAG DyLight800; signal normalised to the original residue; both purified
[1] = target: T1, RGS2^5–16 peptide, Ala^8 to Asp (UniProt P41220)
T1 sequence (peptide): MFLDVQHDCRPM

[2] = target: T2, RGS2^5–16 peptide, Asp^12 to Gly (UniProt P41220)
T2 sequence (peptide): MFLAVQHGCRPM

[3] = target: T3, RGS2^5–16 peptide, Asp^12 to His (UniProt P41220)
T3 sequence (peptide): MFLAVQHHCRPM

[4] = target: T4, RGS2^5–16 peptide, Asp^12 to Ile (UniProt P41220)
T4 sequence (peptide): MFLAVQHICRPM

[5] = target: T5, RGS2^5–16 peptide, Asp^12 to Ser (UniProt P41220)
T5 sequence (peptide): MFLAVQHSCRPM

[6] = target: T6, RGS2^5–16 peptide, Asp^12 to Tyr (UniProt P41220)
T6 sequence (peptide): MFLAVQHYCRPM

[7] = target: T7, RGS2^5–16 peptide, Met^5 to Asp (UniProt P41220)
T7 sequence (peptide): DFLAVQHDCRPM

[8] = target: T8, RGS2^5–16 peptide, Val^9 to Asp (UniProt P41220)
T8 sequence (peptide): MFLADQHDCRPM

Measured: binding

B1: FLAG-tagged FBXO44 FBA domain (FBXO44^FBA) (domain or fragment, UniProt Q9H4M3-1 71-252)
chain: FYFLRSLHRNLLHNPCAEEGFEFWSLDVNGGDEWKVEDLSRDQRKEFPNDQVKKYFVTSYYTCLKSQVVDLKAEGYWEELMDTTRPDIEVKDWFAARPDCGSKYQLCVQLLSSAHAPLGTFQPDPATIQQKSDAKWREVSHTFSNYPPGVRYIWFQHGGVDTHYWAGWYGPRVTNSSITIGP
binds: all assays above
